Laboratory results published in patent publication US9415122B2 (priority 2008, dated 2016).

Test: general procedure: Fmoc solid-phase peptide synthesis; 2-chlorotritylchloride resin; Benzotriazol-1-yl-oxytripyrrolidinophosphonium hexafluorophosphate, 1-hydroxyben
Conditions: conjugation step

Question: Which conjugation yield does the source give for “C-GFTQPETGTDNDLWSVDNEK (Tris-(Gd-DOTA)3 conjugate)” here?
Answer: Its conjugation yield is 68%.
